For one assay, the target named is Myc-ASCC3 (human) (UniProt Q8N3C0). As to the kind of experiment: co-IP; anti-Myc IP from HEK293T co-transfected with epitope-tagged RPA32/RPA70 and epitope-tagged full length ASCC3 (DNA 1:3); vector alone as control.
Another assay addresses Myc-RPA70 (UniProt P27694). The assay is described as above.
In a further assay the target is HA-RPA70 (UniProt P27694). Kind of assay: co-IP; anti-HA IP from HEK293T expressing vector or HA-RPA70, endogenous ASCC2/ASCC3 blotted; with or without 4 mM HU for 4 h; with or without DNase I (50 units) in the lysate.
Assay [1] concerns the target T1, endogenous ASCC2 (HCT116) (human (endogenous in HCT116)) (UniProt Q9H1I8).
T1 sequence: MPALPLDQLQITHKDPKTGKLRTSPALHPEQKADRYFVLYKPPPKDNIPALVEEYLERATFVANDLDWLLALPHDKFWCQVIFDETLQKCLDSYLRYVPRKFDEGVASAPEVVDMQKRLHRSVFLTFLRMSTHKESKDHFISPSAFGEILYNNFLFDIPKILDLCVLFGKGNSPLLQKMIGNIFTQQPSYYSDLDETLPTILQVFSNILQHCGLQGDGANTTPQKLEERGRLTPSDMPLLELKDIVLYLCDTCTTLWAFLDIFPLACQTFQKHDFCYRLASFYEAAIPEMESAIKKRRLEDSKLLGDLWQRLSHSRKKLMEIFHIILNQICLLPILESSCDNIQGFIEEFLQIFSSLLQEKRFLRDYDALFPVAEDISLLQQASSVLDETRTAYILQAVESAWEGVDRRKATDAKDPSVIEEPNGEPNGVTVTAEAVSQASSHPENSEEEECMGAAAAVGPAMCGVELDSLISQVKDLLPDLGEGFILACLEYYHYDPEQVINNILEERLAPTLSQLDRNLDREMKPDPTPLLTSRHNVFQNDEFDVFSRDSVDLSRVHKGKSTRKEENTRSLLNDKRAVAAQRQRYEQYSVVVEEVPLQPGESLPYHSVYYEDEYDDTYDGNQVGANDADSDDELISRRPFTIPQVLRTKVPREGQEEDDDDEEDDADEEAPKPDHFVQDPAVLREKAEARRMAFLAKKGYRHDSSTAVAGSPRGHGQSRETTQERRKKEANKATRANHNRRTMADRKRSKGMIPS
Kind of assay: co-IP; endogenous proteins, HCT116 lysate in NETN buffer; IP with anti-ASCC2 or anti-ASCC3 antibody and protein G beads, washes in NETN with 300 mM NaCl; IgG as control.

Sequences of proteins named here, by UniProt entry; tags and fusion partners are left off.
UniProt Q8N3C0: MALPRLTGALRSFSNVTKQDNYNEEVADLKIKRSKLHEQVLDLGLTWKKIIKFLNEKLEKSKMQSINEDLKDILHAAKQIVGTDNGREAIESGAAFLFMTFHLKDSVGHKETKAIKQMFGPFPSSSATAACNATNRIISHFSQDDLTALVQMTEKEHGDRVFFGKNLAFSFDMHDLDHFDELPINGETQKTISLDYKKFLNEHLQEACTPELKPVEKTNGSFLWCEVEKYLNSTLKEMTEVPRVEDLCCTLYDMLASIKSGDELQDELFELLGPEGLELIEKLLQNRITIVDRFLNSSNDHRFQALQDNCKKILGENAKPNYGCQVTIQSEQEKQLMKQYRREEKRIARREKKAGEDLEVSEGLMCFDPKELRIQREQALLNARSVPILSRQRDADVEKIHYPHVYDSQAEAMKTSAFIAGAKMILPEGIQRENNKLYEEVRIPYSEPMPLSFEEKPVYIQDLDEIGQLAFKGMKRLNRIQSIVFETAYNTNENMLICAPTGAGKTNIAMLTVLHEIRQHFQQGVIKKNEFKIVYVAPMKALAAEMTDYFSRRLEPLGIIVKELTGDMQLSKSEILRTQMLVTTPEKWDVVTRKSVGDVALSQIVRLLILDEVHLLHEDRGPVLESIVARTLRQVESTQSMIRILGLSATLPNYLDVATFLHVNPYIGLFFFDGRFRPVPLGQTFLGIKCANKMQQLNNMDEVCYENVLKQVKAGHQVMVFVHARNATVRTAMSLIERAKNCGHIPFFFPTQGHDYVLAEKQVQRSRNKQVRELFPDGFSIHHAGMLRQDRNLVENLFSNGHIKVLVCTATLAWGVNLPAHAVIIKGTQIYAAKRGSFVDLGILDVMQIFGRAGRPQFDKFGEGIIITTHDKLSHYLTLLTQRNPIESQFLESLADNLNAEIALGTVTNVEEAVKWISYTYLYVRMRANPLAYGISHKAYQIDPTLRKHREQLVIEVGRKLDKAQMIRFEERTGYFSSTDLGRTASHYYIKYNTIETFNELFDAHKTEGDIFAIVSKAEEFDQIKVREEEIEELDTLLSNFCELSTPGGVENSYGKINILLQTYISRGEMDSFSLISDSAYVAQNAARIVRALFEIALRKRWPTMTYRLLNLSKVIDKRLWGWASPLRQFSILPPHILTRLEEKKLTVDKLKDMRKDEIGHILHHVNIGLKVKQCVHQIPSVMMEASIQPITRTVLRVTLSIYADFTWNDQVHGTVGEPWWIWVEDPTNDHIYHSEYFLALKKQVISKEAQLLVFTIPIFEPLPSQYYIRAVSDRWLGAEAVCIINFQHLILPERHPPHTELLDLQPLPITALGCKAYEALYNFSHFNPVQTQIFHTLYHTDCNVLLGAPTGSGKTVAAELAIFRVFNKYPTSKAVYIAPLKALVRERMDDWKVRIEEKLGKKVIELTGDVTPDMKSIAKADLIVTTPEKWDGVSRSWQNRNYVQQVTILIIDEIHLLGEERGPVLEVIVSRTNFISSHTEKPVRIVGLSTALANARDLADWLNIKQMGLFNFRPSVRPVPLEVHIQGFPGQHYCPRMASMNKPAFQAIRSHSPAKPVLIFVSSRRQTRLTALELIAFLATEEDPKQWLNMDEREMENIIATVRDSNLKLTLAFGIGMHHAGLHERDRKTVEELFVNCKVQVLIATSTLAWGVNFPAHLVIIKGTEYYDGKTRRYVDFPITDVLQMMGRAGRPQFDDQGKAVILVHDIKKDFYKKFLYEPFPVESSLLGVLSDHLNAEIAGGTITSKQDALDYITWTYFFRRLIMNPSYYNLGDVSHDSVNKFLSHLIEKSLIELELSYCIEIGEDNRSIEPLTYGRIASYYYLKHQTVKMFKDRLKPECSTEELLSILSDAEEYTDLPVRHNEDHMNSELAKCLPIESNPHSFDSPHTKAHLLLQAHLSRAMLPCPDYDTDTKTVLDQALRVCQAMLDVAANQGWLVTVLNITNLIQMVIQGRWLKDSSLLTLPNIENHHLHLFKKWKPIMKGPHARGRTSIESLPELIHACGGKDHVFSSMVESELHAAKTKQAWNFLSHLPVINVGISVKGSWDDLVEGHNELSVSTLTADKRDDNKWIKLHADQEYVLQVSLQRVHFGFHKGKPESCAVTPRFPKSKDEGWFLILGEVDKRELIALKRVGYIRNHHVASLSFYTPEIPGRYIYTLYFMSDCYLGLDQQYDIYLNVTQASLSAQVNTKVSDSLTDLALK
UniProt P27694: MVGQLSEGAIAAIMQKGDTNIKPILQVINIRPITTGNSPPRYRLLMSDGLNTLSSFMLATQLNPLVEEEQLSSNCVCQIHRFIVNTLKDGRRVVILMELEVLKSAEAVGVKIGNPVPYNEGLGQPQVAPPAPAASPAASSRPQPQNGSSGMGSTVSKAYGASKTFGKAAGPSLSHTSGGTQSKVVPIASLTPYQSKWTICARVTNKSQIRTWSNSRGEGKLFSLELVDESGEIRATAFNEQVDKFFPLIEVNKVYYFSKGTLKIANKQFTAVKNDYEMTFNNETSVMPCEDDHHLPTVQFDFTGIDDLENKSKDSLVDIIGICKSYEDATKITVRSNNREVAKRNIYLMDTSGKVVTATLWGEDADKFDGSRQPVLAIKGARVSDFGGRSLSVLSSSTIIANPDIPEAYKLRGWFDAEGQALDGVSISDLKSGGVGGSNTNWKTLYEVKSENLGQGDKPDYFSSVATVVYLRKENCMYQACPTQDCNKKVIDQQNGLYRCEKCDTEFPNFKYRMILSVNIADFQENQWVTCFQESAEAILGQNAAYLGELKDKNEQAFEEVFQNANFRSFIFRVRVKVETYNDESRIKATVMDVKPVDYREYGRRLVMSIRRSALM
UniProt P15927: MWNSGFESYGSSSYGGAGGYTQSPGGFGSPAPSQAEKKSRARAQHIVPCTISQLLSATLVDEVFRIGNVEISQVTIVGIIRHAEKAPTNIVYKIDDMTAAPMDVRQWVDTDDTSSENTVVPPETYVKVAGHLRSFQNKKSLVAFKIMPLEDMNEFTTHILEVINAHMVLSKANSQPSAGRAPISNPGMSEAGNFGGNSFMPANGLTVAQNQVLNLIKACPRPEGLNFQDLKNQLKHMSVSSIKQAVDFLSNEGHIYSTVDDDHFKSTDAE

Assay [2] addresses endogenous ASCC3 (HCT116) (human (endogenous in HCT116)) (UniProt Q8N3C0). Described as above.

These are yes or no findings as the source states them, for the method shown. In cells and extracts the contact can be indirect. Some entries that bind do so weakly or less than the wild type.

HA-RPA70 (from UniProt P27694 1-616): the binding entry with Myc-ASCC3 (human) is given as “binds”.
For eGFP-ASCC3 (from UniProt Q8N3C0 1-2202), in the assay with Myc-RPA70, the binding entry is listed as “binds”.
As for “endogenous ASCC3 (HEK293T) (from UniProt Q8N3C0 1-2202)”, the binding entry with HA-RPA70 is on record as “binds”.
As to “endogenous RPA32 (HCT116) (from UniProt P15927 1-270)”, in assay [1], the binding entry is given as “binds”.
Regarding “endogenous RPA70 (HCT116) (from UniProt P27694 1-616)”, the binding result in assay [2] and in assay [1] was “binds” in each case.

These data come from article doi:10.1101/2025.07.24.666583.
